Experimental data from the supplement of paper PMC7877785.
± gives the uncertainty stated by the source. Many of these values have a large error.

Test: self-splicing fitness, log relative to wild type (ln ratio); higher = more splicing; Tetrahymena group I intron in knt gene, E. coli kanamycin selection, DiMSum; sequences stand for … in CUCUCU…GGAGGGAAAAGUUAUCAGGCAUGCACCUGGUAGCUAGUCUUUAAACCAAUAGAUUGCAUCGGUUUAAAAGGCAAGACCGUCAAAUUGCGGGAAAGGGGUCAACAGCCGUUCAGUACCAAGUCUCAGGGGAAACUUUGAGAUGGCCUUGCAAAGGGUAUGGUAAUAAGCUGACGGACAUGGUCCUAACCACGCAGCCAAGUCCUAAGUCAACAGAUCUUCUGUUGAUAUGGAUGCAGUUCACAGACUAAAUGUCGGUCGGGGAAGAUGUAUUCUUCUCAUAAGAUAUAGUCGGACCUCUCCUUAAUGGGAGCUAGCGGAUGAAGUGAUGCAACACUGGAGCCGCUGGGAACUAAUUUGUAUGCGAAAGUAUAUUGAUUAGUUUUGGAGUACUCGUGGUCG
How it was run: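 Fitness was computed with DiMSum as the error-weighted combination of replicate fold changes, kanamycin versus none, each normalised to wild type. The library randomised all eight intron nucleotides of the P1ex region, with the intron placed in the knt kanamycin-resistance gene on pET-22b(+) in E. coli BL21(DE3). Six replicate transformations were grown overnight at 37°C or 30°C on LB agar with or without 25 μg/mL kanamycin, plus 100 μg/mL carbenicillin, 50 μM IPTG and 0.2% rhamnose. Pooled colonies were amplicon-sequenced on an Illumina HiSeq 2500.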

Row | Sequence | self-splicing fitness (ln) (37 °C) | self-splicing fitness (ln) (30 °C)
1 | UCCGAGCAAUAUUACGCGGA | -2.54 ± 0.76 | 
2 | CAGUAGCAAUAUUACGCGGG | -1.91 ± 0.17 | -3.1 ± 0.16
3 | GCCAAGCAAUAUUACGAAAC | -0.23 ± 0.14 | -2.15 ± 0.14
4 | UCGAAGCAAUAUUACGCCGG | -2.18 ± 0.19 | -2.32 ± 0.13
5 | GUGAAGCAAUAUUACGCCCC | -0.534 ± 0.53 | 
6 | CACGAGCAAUAUUACGGGCA | -2.94 ± 1 | 
7 | UAAUAGCAAUAUUACGAGCC |  | -3.52 ± 0.75
8 | AAGGAGCAAUAUUACGAAUG | -3.08 ± 0.53 | 
9 | UGUCAGCAAUAUUACGUUGC |  | -3.38 ± 0.61
10 | GUAGAGCAAUAUUACGCCAC | -3.64 ± 1 | 
11 | ACACAGCAAUAUUACGGGCA | -0.0778 ± 0.091 | -1.48 ± 0.078
12 | ACCCAGCAAUAUUACGCUCA | -0.324 ± 0.087 | -0.397 ± 0.065
13 | CUGGAGCAAUAUUACGCAGA | -3.51 ± 0.52 | 
14 | UGGUAGCAAUAUUACGGAGA |  | -3.01 ± 0.62
15 | CUCUAGCAAUAUUACGGCCC | -2.39 ± 1.1 | 
16 | AGCGAGCAAUAUUACGCCUC | -3.37 ± 0.75 | 
17 | UCGAAGCAAUAUUACGAGCA | 0.162 ± 0.14 | -1.77 ± 0.14
18 | GGAGAGCAAUAUUACGGGUG | -2.45 ± 0.54 | -2.47 ± 0.59
19 | UGUAAGCAAUAUUACGAUGG | -0.756 ± 0.12 | -2.9 ± 0.13
20 | UGUCAGCAAUAUUACGCCUC | 0.000402 ± 0.87 | 
21 | CUGAAGCAAUAUUACGACCC | -2.05 ± 1.1 | 
22 | UAAUAGCAAUAUUACGAAAC | -2.52 ± 1.1 | -5.21 ± 1
23 | GAGGAGCAAUAUUACGCGUC |  | -4.46 ± 0.59
24 | CACCAGCAAUAUUACGGGUA | -0.404 ± 0.055 | -0.28 ± 0.045

Exported as tab-separated lines: part of the list above
Row	Sequence	self-splicing fitness (ln) (37 °C)	self-splicing fitness (ln) (30 °C)
1	UCCGAGCAAUAUUACGCGGA	-2.54 ± 0.76	
5	GUGAAGCAAUAUUACGCCCC	-0.534 ± 0.53	
8	AAGGAGCAAUAUUACGAAUG	-3.08 ± 0.53	
9	UGUCAGCAAUAUUACGUUGC		-3.38 ± 0.61
10	GUAGAGCAAUAUUACGCCAC	-3.64 ± 1	
11	ACACAGCAAUAUUACGGGCA	-0.0778 ± 0.091	-1.48 ± 0.078
12	ACCCAGCAAUAUUACGCUCA	-0.324 ± 0.087	-0.397 ± 0.065
13	CUGGAGCAAUAUUACGCAGA	-3.51 ± 0.52	
16	AGCGAGCAAUAUUACGCCUC	-3.37 ± 0.75	
17	UCGAAGCAAUAUUACGAGCA	0.162 ± 0.14	-1.77 ± 0.14
19	UGUAAGCAAUAUUACGAUGG	-0.756 ± 0.12	-2.9 ± 0.13
21	CUGAAGCAAUAUUACGACCC	-2.05 ± 1.1	
24	CACCAGCAAUAUUACGGGUA	-0.404 ± 0.055	-0.28 ± 0.045

(cont.)

Row | Sequence | self-splicing fitness (ln) (37 °C) | self-splicing fitness (ln) (30 °C)
25 | UUUUAGCAAUAUUACGCAUU | -1.27 ± 0.15 | -2.39 ± 0.11
26 | CAGGAGCAAUAUUACGAAAU | -4.25 ± 0.72 | 
27 | UUCUAGCAAUAUUACGUGAC | -1.61 ± 0.24 | -3.69 ± 0.31
28 | CGAGAGCAAUAUUACGCAAA | -2.74 ± 0.62 | 
29 | CCUGAGCAAUAUUACGGUCC | -1.22 ± 0.43 | -1.71 ± 0.36
30 | GAAGAGCAAUAUUACGAGAA | -1.67 ± 0.68 | -2.21 ± 0.79
31 | AGAGAGCAAUAUUACGGAUC | -3.28 ± 1 | 
32 | CGGUAGCAAUAUUACGCCCG | -1.39 ± 1.2 | -3.27 ± 0.54
33 | GGGUAGCAAUAUUACGCUCU | -1.61 ± 0.59 | 
34 | CCGUAGCAAUAUUACGUCCC | -0.693 ± 1.4 | 
35 | UCAGAGCAAUAUUACGGCAC |  | -4.65 ± 1
36 | UUGGAGCAAUAUUACGAAUC |  | -4.03 ± 0.52
37 | CUUGAGCAAUAUUACGAUAC | -4.58 ± 1 | 
38 | GCGGAGCAAUAUUACGGCUC | -1.58 ± 0.54 | 
39 | ACAAAGCAAUAUUACGCCAC | -3.2 ± 0.6 | 
40 | CGUAAGCAAUAUUACGGCCC |  | -2.5 ± 0.51
41 | UUUUAGCAAUAUUACGUGGG | -2.27 ± 0.27 | -1.79 ± 0.2
42 | UCAAAGCAAUAUUACGAACU | -1.97 ± 0.23 | -3.14 ± 0.19
43 | CGUGAGCAAUAUUACGAUUU | -2.24 ± 0.29 | -4.47 ± 1
44 | GUGGAGCAAUAUUACGGACC | -2.92 ± 1 | 
45 | GAUAAGCAAUAUUACGGAUU | -1.91 ± 0.12 | -3.19 ± 0.14
46 | CAUGAGCAAUAUUACGCCAA | -2.53 ± 0.36 | -3.67 ± 0.41
47 | GGGGAGCAAUAUUACGCACG | -1.44 ± 0.24 | -1.89 ± 0.17
